Measurements reported in patent US20110300157A1 (DYAX, published 2011).
Results are given in words; binding and its absence hold for the method and conditions named. Some binding calls cover weakened binding; strength is not graded here.

By UniProt entry, the sequences of proteins in these tests, tags left out. Residues count along the entry.
UniProt P08253, residues 110-660: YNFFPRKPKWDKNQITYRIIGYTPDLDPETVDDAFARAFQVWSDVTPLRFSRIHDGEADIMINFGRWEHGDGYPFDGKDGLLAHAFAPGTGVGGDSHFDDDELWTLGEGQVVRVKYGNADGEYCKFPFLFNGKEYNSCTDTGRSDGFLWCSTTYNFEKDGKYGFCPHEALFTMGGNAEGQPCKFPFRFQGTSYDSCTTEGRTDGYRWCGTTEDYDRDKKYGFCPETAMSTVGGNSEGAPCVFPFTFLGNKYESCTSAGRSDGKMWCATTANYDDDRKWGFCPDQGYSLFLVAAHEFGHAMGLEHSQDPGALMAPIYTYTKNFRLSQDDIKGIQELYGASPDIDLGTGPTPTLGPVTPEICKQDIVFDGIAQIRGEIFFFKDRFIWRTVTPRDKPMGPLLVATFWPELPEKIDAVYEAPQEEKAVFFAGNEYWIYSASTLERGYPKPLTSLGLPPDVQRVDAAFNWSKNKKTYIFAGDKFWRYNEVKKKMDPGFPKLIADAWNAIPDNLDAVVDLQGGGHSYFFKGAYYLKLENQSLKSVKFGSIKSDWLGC
UniProt P14780, residues 107-444: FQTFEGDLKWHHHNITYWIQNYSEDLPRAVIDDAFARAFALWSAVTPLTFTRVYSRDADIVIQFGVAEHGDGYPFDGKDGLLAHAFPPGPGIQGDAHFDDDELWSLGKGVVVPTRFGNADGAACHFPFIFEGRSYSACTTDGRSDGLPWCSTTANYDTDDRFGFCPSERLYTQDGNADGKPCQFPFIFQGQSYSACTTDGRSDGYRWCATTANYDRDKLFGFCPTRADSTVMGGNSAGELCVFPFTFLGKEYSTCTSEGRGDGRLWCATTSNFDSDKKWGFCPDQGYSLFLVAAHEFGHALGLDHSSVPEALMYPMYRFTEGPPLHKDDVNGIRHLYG
UniProt P33434, residues 110-662: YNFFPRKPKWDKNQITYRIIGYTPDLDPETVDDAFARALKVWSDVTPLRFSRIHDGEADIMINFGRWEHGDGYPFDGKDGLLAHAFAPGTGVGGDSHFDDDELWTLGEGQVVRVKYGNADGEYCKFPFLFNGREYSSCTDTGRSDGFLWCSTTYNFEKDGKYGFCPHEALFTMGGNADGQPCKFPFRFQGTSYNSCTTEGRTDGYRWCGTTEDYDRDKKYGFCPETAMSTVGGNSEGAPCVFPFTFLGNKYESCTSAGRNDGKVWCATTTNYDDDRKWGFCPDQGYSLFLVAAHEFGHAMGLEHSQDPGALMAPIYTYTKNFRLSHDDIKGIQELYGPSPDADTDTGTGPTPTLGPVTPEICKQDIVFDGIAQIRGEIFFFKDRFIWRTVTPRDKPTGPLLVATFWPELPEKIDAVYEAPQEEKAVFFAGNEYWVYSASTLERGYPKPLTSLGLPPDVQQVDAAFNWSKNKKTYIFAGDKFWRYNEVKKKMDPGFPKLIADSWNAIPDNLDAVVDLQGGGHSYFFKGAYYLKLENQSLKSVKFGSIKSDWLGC
UniProt P41245, residues 108-730: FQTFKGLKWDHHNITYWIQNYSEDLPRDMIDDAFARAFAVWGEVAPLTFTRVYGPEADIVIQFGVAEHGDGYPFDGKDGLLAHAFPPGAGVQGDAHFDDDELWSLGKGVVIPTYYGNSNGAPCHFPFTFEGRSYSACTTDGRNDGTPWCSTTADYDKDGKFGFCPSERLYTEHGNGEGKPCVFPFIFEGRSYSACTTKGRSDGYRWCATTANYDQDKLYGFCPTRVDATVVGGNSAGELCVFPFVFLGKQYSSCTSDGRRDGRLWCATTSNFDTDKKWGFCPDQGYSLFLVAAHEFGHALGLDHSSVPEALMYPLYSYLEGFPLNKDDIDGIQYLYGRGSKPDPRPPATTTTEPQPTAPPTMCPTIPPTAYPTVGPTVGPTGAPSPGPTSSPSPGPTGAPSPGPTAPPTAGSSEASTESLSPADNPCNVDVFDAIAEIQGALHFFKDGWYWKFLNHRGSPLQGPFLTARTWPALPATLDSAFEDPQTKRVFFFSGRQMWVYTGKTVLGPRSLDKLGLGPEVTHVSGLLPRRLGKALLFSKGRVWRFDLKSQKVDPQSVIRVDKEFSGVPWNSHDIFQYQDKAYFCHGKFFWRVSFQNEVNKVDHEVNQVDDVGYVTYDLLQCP

Columns and labels:
Test in all cases: phage display selection, affinity maturation libraries
hMMP2 (human) = hMMP2 (human) (UniProt P08253)
hMMP9 (human) = hMMP9 (human) (UniProt P14780)
mMMP2 (mouse) = mMMP2 (mouse) (UniProt P33434)
mMMP9 (mouse) = mMMP9 (mouse) (UniProt P41245)

B1: Fab M265-C07 (Fab, V domains shown)
VH: EVQLLESGGGLVQPGGSLRLSCAASGFTFSQYPMWWVRQAPGKGLEWVSYIVPSGGRTYYADSVKGRFTISRDNSKNTLYLQMNSLRAEDTAVYYCAKDRAYGDYVGWNGFDYWGQGTLVTVSS
VL: DIQMTQSPATLSLSPGERASLSCRASQNVARFLAWYQQKPGQAPRLLIYSASNRATGVPDRFSGSGSGTDFTLTISSLEPEDFAVYFCQQRGNWPITFGQGTRLEIK
binding (hMMP2 (human)): binds
binding (hMMP9 (human)): binds

B2: Fab M265-A07 (Fab, V domains shown)
VH: EVQLLESGGGLVQPGGSLRLSCAASGFTFSQYPMWWVRQAPGKGLEWVSYIVPSGGRTYYADSVKGRFTISRDNSKNTLYLQMNSLRAEDTAVYYCAKDRAYGDYVGWNGFDYWGQGTLVTVSS
VL: DIQMTQSPATLSLSPGERATLSCRASQNVHTYLAWYQQKPGQAPRLLISEASNRATGVPARFTGSGSGIDFSLSISSLEPEDFAIYYCQQRGGWPITFGGGTKVEIK
binding (hMMP2 (human)): binds
binding (hMMP9 (human)): binds
binding (mMMP2 (mouse)): binds

B3: Fab M256-D03 (Fab, V domains shown)
VH: EVQLLESGGGLVQPGGSLRLSCAASGFTFSVYPMIWVRQAPGKGLEWVSYISPSGGFTGYADSVKGRFTISRDNSKNTLYLQMNSLRAEDTAVYYCAKDRAYGDYVGWNGFDYWGQGTLVTVSS
VL: DIQMTQSPATLSLSPGERATLSCRASQSISSFLAWYQQKPGQAPRLLIYDASYRATGIPARFSGSGSGTDFTLTISSLEPEDYAVYYCQQRGNWPITFGQGTRLEIK
binding (hMMP2 (human)): binds
binding (hMMP9 (human)): binds
binding (mMMP9 (mouse)): binds

B4: Fab M256-E10 (Fab, V domains shown)
VH: EVQLLESGGGLVQPGGSLRLSCAASGFTFSDYPMWWVRQAPGKGLEWVSVIYPSGGATFYADSVKGRFTISRDNSKNTLYLQMNSLRAEDTAVYYCAKDRAYGDYVGWNGFDYWGQGTLVTVSS
VL: DIQMTQSPATLSLSPGERATLSCRASQSISSFLAWYQQKPGQAPRLLIYDASYRATGIPARFSGSGSGTDFTLTISSLEPEDYAVYYCQQRGNWPITFGQGTRLEIK
binding (hMMP2 (human)): binds
binding (hMMP9 (human)): binds
binding (mMMP9 (mouse)): binds

B5: Fab M256-E03 (Fab, V domains shown)
VH: EVQLLESGGGLVQPGGSLRLSCAASGFTFSTYPMIWVRQAPGKGLEWVSYISPSGGYTGYADSVKGRFTISRDNSKNTLYLQMNSLRAEDTAVYYCAKDRAYGDYVGWNGFDYWGQGTLVTVSS
VL: DIQMTQSPATLSLSPGERATLSCRASQSISSFLAWYQQKPGQAPRLLIYDASYRATGIPARFSGSGSGTDFTLTISSLEPEDYAVYYCQQRGNWPITFGQGTRLEIK
binding (hMMP2 (human)): binds
binding (hMMP9 (human)): binds
binding (mMMP9 (mouse)): binds

B6: Fab M256-D11 (Fab, V domains shown)
VH: EVQLLESGGGLVQPGGSLRLSCAASGFTFSHYDMWWVRQAPGKGLEWVSVIYSSGGPTFYADSVKGRFTISRDNSKNTLYLQMNSLRAEDTAVYYCAKDRAYGDYVGWNGFDYWGQGTLVTVSS
VL: DIQMTQSPATLSLSPGERATLSCRASQSISSFLAWYQQKPGQAPRLLIYDASYRATGIPARFSGSGSGTDFTLTISSLEPEDYAVYYCQQRGNWPITFGQGTRLEIK
binding (hMMP2 (human)): binds
binding (hMMP9 (human)): binds
binding (mMMP9 (mouse)): binds

B7: Fab M256-A04 (Fab, V domains shown)
VH: EVQLLESGGGLVQPGGSLRLSCAASGFTFSHYPMWWVRQAPGKGLEWVSSISPSGGATYYADSVKGRFTISRDNSKNTLYLQMNSLRAEDTAVYYCAKDRAYGDYVGWNGFDYWGQGTLVTVSS
VL: DIQMTQSPATLSLSPGERATLSCRASQSISSFLAWYQQKPGQAPRLLIYDASYRATGIPARFSGSGSGTDFTLTISSLEPEDYAVYYCQQRGNWPITFGQGTRLEIK
binding (hMMP2 (human)): binds
binding (hMMP9 (human)): binds
binding (mMMP2 (mouse)): binds
binding (mMMP9 (mouse)): binds

B8: Fab M256-G09 (Fab, V domains shown)
VH: EVQLLESGGGLVQPGGSLRLSCAASGFTFSKYPMWWVRQAPGKGLEWVSSIYPSGGATFYADSVKGRFTISRDNSKNTLYLQMNSLRAEDTAVYYCAKDRAYGDYVGWNGFDYWGQGTLVTVSS
VL: DIQMTQSPATLSLSPGERATLSCRASQSISSFLAWYQQKPGQAPRLLIYDASYRATGIPARFSGSGSGTDFTLTISSLEPEDYAVYYCQQRGNWPITFGQGTRLEIK
binding (hMMP2 (human)): binds
binding (hMMP9 (human)): binds

B9: Fab M256-A07 (Fab, V domains shown)
VH: EVQLLESGGGLVQPGGSLRLSCAASGFTFSHYDMLWVRQAPGKGLEWVSYISSSGGYTGYADSVKGRFTISRDNSKNTLYLQMNSLRAEDTAVYYCAKDRAYGDYVGWNGFDYWGQGTLVTVSS
VL: DIQMTQSPATLSLSPGERATLSCRASQSISSFLAWYQQKPGQAPRLLIYDASYRATGIPARFSGSGSGTDFTLTISSLEPEDYAVYYCQQRGNWPITFGQGTRLEIK
binding (hMMP2 (human)): binds
binding (hMMP9 (human)): binds

B10: Fab M256-C09 (Fab, V domains shown)
VH: EVQLLESGGGLVQPGGSLRLSCAASGFTFSKYPMWWVRQAPGKGLEWVSYISSSGGGTFYADSVKGRFTISRDNSKNTLYLQMNSLRAEDTAVYYCAKDRAYGDYVGWNGFDYWGQGTLVTVSS
VL: DIQMTQSPATLSLSPGERATLSCRASQSISSFLAWYQQKPGQAPRLLIYDASYRATGIPARFSGSGSGTDFTLTISSLEPEDYAVYYCQQRGNWPITFGQGTRLEIK
binding (hMMP2 (human)): binds
binding (hMMP9 (human)): binds
binding (mMMP2 (mouse)): binds

B11: Fab M256-C07 (Fab, V domains shown)
VH: EVQLLESGGGLVQPGGSLRLSCAASGFTFSLYDMWWVRQAPGKGLEWVSYISSSGGATFYADSVKGRFTISRDNSKNTLYLQMNSLRAEDTAVYYCAKDRAYGDYVGWNGFDYWGQGTLVTVSS
VL: DIQMTQSPATLSLSPGERATLSCRASQSISSFLAWYQQKPGQAPRLLIYDASYRATGIPARFSGSGSGTDFTLTISSLEPEDYAVYYCQQRGNWPITFGQGTRLEIK
binding (hMMP2 (human)): binds
binding (hMMP9 (human)): binds

B12: Fab M256-B03 (Fab, V domains shown)
VH: EVQLLESGGGLVQPGGSLRLSCAASGFTFSRYPMWWVRQAPGKGLEWVSYISPSGGFTSYADSVKGRFTISRDNSKNTLYLQMNSLRAEDTAVYYCAKDRAYGDYVGWNGFDYWGQGTLVTVSS
VL: DIQMTQSPATLSLSPGERATLSCRASQSISSFLAWYQQKPGQAPRLLIYDASYRATGIPARFSGSGSGTDFTLTISSLEPEDYAVYYCQQRGNWPITFGQGTRLEIK
binding (hMMP2 (human)): binds
binding (hMMP9 (human)): binds

B13: Fab M266-E02 (Fab, V domains shown)
VH: EVQLLESGGGLVQPGGSLRLSCAASGFTFSQYPMWWVRQAPGKGLEWVSYIVPSGGRTYYADSVKGRFTISRDNSKNTLYLQMNSLRAEDTAVYYCAKDRAYGDYVGWNGFDYWGQGTLVTVSS
VL: DIQMTQSPATLSLSPGETAILSCRASQSVGRFLAWYQQKPGQAPRLLIYGASSRATGIPDRFSGSGSGTDFSLTISRLEPEDFAVYYCQQRGNWPITFGQGTRLEIK
binding (hMMP2 (human)): binds
binding (hMMP9 (human)): binds
binding (mMMP2 (mouse)): binds
binding (mMMP9 (mouse)): binds

B14: Fab M266-D03 (Fab, V domains shown)
VH: EVQLLESGGGLVQPGGSLRLSCAASGFTFSQYPMWWVRQAPGKGLEWVSYIVPSGGRTYYADSVKGRFTISRDNSKNTLYLQMNSLRAEDTAVYYCAKDRAYGDYVGWNGFDYWGQGTLVTVSS
VL: DIQMTQSPATLSVSPGERATLSCRASQNIGSDLAWYQHKPGQGPRLLIYGASSRATGIPDRFSGSGSGTDFTLTISSLEPEDFAVYFCQQRGNWPITFGQGTRLEIK
binding (hMMP2 (human)): binds
binding (hMMP9 (human)): binds
binding (mMMP9 (mouse)): binds

B15: Fab M263-F05 (Fab, V domains shown)
VH: EVQLLESGGGLVQPGGSLRLSCAASGFTFSQYPMWWVRQAPGKGLEWVSYIVPSGGRTYYADSVKGRFTISRDNSKNTLYLQMNSLRAEDTAVYYCAKDRAYGDYVGWNGFDYWGQGTLVTVSS
VL: DIQMTQSPGTLSLSPGERATLSCRASQSVGNFLAWYQQKPGQAPRLLIYGASNRATGIPDRFSGSGSGTDFTLTISRLEPEDFAVYFCQQRGNWPITFGQGTRLEIK
binding (hMMP2 (human)): binds
binding (hMMP9 (human)): binds
binding (mMMP2 (mouse)): binds
binding (mMMP9 (mouse)): binds

B16: Fab M264-A09 (Fab, V domains shown)
VH: EVQLLESGGGLVQPGGSLRLSCAASGFTFSQYPMWWVRQAPGKGLEWVSYIVPSGGRTYYADSVKGRFTISRDNSKNTLYLQMNSLRAEDTAVYYCAKDRAYGDYVGWNGFDYWGQGTLVTVSS
VL: DIQMTQSPSSVSASTGDRVIISCRASQVIFSGLAWYQQKPGKAPKLLISAASNLQSGVPARFSGSGSGTYFTLTISSLQPEDFATYYCQQAQTFPFTFGPGTKVDVQ
binding (hMMP2 (human)): binds
binding (hMMP9 (human)): binds
binding (mMMP2 (mouse)): binds
binding (mMMP9 (mouse)): binds

B17: Fab M263-F01 (Fab, V domains shown)
VH: EVQLLESGGGLVQPGGSLRLSCAASGFTFSQYPMWWVRQAPGKGLEWVSYIVPSGGRTYYADSVKGRFTISRDNSKNTLYLQMNSLRAEDTAVYYCAKDRAYGDYVGWNGFDYWGQGTLVTVSS
VL: DIQMTQSPSSVSASVGDRVTITCRASQNIGRWLAWYQQKPGQAPNLLIYGASSLQTGVPSRFSGSGSGTDFSLTISSLQPEDFAVYYCQQRRKWPVTFGGGTKVEIK
binding (hMMP2 (human)): binds
binding (hMMP9 (human)): binds
binding (mMMP2 (mouse)): binds
binding (mMMP9 (mouse)): binds

B18: Fab M265-A04 (Fab, V domains shown)
VH: EVQLLESGGGLVQPGGSLRLSCAASGFTFSQYPMWWVRQAPGKGLEWVSYIVPSGGRTYYADSVKGRFTISRDNSKNTLYLQMNSLRAEDTAVYYCAKDRAYGDYVGWNGFDYWGQGTLVTVSS
VL: DIQMTQSPVTLSVSPGERATLSCRASQNIGSDLAWYQQQPGQAPRLLIYRASFRATGIPARFSGSGSGTDFTLTISSLQSEDFAVYYCQQRGNWPPTFGGGTKVEIR
binding (hMMP2 (human)): binds
binding (hMMP9 (human)): binds
